Earlier results on one molecule are cited in article PMC4886219, “Bioengineered kidney tubules efficiently excrete uremic toxins” (Scientific Reports, 2016).

For the data set the following is noted: cited from earlier work.

Take `NS(=O)(=O)c1cc(C(=O)O)c(NCc2ccco2)cc1Cl` [Furosemide]: the protein bound entry is on record as “approx. 98%”.
